The target in this test is T1, endogenous SIRT1 of BV2 microglial cells (mouse (endogenous in BV2)) (UniProt Q923E4).
T1 sequence: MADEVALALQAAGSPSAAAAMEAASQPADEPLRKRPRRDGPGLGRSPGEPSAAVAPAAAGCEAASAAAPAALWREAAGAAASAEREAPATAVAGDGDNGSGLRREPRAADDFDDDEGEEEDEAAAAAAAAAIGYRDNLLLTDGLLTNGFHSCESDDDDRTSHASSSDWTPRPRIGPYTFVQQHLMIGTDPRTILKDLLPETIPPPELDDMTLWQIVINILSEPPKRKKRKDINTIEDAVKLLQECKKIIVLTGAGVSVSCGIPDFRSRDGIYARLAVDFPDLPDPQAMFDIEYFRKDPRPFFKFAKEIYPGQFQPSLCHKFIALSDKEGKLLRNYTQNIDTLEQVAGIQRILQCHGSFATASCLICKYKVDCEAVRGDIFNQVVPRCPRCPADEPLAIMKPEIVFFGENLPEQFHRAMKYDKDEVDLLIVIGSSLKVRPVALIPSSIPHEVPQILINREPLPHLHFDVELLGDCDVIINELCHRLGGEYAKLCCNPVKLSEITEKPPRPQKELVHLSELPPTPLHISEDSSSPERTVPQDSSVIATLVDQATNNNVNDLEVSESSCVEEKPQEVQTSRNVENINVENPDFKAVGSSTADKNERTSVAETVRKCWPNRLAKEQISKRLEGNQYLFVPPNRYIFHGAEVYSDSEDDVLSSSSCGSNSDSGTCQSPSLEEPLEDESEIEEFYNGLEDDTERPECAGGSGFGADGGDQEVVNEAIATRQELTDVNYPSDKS
The test can be described thus: co-IP; endogenous proteins in BV2 cell RIPA lysate; anti-TSC2 or anti-Sirt1 antibody overnight at 4 °C, protein A/G sepharose beads 3 h, five washes with RIPA buffer; immunoblot; IgG IP as control.

Protein sequences, listed by entry. Tags and fused reporters are not part of them.
UniProt Q61037: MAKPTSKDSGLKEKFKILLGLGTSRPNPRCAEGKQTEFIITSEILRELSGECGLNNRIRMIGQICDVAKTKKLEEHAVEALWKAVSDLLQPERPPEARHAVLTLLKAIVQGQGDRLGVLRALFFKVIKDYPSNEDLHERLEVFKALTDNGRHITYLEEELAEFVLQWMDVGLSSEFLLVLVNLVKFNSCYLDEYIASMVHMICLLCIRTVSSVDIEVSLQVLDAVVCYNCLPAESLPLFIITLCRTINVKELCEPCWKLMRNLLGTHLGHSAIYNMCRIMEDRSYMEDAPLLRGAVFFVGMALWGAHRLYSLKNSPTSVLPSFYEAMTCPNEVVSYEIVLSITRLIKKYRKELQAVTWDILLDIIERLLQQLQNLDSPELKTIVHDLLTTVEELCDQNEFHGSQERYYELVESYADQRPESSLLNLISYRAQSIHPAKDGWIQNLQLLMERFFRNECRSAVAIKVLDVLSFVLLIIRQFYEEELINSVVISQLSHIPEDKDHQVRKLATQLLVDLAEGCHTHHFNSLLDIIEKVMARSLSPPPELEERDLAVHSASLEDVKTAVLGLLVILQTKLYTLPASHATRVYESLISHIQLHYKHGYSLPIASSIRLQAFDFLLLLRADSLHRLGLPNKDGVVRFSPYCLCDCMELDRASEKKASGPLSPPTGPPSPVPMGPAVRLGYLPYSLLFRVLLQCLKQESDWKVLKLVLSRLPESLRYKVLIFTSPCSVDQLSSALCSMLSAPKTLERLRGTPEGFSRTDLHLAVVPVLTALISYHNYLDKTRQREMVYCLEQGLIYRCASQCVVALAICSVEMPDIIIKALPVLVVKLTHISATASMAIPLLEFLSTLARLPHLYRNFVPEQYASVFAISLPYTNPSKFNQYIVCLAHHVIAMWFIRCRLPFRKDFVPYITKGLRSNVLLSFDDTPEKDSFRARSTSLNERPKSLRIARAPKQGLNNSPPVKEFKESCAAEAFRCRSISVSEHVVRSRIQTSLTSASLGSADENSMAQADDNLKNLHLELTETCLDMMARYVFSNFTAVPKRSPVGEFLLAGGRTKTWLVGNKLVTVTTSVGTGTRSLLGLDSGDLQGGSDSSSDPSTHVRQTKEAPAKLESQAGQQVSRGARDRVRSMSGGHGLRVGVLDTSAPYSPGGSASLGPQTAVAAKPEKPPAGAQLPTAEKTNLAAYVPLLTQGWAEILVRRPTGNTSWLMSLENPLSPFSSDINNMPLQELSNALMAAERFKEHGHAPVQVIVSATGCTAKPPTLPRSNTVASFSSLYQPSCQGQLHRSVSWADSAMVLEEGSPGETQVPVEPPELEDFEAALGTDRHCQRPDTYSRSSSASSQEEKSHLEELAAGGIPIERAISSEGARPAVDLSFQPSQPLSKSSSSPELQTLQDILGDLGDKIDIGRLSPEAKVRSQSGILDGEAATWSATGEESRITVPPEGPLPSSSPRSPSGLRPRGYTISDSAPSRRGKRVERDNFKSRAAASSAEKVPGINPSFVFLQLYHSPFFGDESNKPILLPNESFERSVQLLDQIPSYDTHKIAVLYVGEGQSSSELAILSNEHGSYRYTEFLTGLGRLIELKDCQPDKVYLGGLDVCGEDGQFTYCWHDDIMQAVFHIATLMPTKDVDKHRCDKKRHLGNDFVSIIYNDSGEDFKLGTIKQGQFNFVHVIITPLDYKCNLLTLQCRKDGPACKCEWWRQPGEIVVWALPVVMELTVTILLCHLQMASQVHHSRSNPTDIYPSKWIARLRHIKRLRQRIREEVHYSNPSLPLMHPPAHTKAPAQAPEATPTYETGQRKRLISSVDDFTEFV

No constants are given. Whether binding was seen depends on the method and setting. Binding seen in cells or lysates may run through a third protein. Some results given as binding are weak or reduced against the parent protein; the word gives no strength.

“endogenous TSC2 of BV2 microglial cells (from UniProt Q61037 1-1814)”: the binding entry was “binds”.

The record behind these values is PMC10481494.
